Article PMC3972672
These are yes or no findings as the source states them, for the method shown. In cells and extracts the contact can be indirect. Some results given as binding are weak or reduced against the parent protein; the word gives no strength.

T1: CD95 (Fas/APO-1) (human (endogenous in SKW6.4)), P25445
T1 chain: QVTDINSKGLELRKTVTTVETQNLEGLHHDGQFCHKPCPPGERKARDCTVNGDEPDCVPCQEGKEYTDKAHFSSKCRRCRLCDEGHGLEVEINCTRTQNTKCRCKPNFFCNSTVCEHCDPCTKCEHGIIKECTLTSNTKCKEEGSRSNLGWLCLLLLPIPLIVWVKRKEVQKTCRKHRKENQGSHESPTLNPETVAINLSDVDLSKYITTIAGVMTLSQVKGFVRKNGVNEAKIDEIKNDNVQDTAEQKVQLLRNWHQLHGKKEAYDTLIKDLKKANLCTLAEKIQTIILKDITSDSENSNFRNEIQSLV

B1: FADD, Q13158 1-208 (natural protein)
chain: MDPFLVLLHSVSSSLSSSELTELKFLCLGRVGKRKLERVQSGLDLFSMLLEQNDLEPGHTELLRELLASLRRHDLLRRVDDFEAGAAAGAAPGEEDLCAAFNVICDNVGKDWRRLARQLKVSDTKIDSIEDRYPRNLTERVRESLRIWKNTEKENATVAHLVGALRSCQMNLVADLVQEVQQARDLQNRSGAMSPMSWNSDASTSEAS
B2: procaspase-8, Q14790 1-479 (enzyme)
chain: MDFSRNLYDIGEQLDSEDLASLKFLSLDYIPQRKQEPIKDALMLFQRLQEKRMLEESNLSFLKELLFRINRLDLLITYLNTRKEEMERELQTPGRAQISAYRVMLYQISEEVSRSELRSFKFLLQEEISKCKLDDDMNLLDIFIEMEKRVILGEGKLDILKRVCAQINKSLLKIINDYEEFSKERSSSLEGSPDEFSNGEELCGVMTISDSPREQDSESQTLDKVYQMKSKPRGYCLIINNHNFAKAREKVPKLHSIRDRNGTHLDAGALTTTFEELHFEIKPHDDCTVEQIYEILKIYQLMDHSNMDCFICCILSHGDKGIIYGTDGQEAPIYELTSQFTGLKCPSLAGKPKVFFIQACQGDNYQKGIPVETDSEEQPYLEMDLSSPQTRYIPDEADFLLGMATVNNCVSYRNPAEGTWYIQSLCQSLRERCPRGDDILTILTEVNYEVSNKDDKKNMGKQMPQPTFTLRKKLVFPSD

Molecular target: T1, CD95 (Fas/APO-1) (human (endogenous in …))
Experiment: co-IP; anti-CD95 antibody (10 ug) and Protein-A-Sepharose beads; 5 x 10^7 SKW6.4 cells stimulated with 1 ug/mL LZ-CD95L for 15 min, lysed under mild conditions; Western blot
Conditions: remark: other sources report otherwise

Binder	binding
B1	binds
B2	binds
